Reference: the supplement of paper PMC10849652
The list shows a part of the results.

Sequences of proteins named here, by UniProt entry; tags and fusion partners are left off. A change or cut given only in a name is not applied to a line headed by its entry.
UniProt P30086: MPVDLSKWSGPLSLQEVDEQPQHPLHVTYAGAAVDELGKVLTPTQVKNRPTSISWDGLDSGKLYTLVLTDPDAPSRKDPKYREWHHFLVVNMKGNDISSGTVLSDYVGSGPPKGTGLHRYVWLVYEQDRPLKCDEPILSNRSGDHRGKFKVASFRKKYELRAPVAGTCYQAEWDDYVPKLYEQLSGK
UniProt Q6ZW49, whole entry, looked up: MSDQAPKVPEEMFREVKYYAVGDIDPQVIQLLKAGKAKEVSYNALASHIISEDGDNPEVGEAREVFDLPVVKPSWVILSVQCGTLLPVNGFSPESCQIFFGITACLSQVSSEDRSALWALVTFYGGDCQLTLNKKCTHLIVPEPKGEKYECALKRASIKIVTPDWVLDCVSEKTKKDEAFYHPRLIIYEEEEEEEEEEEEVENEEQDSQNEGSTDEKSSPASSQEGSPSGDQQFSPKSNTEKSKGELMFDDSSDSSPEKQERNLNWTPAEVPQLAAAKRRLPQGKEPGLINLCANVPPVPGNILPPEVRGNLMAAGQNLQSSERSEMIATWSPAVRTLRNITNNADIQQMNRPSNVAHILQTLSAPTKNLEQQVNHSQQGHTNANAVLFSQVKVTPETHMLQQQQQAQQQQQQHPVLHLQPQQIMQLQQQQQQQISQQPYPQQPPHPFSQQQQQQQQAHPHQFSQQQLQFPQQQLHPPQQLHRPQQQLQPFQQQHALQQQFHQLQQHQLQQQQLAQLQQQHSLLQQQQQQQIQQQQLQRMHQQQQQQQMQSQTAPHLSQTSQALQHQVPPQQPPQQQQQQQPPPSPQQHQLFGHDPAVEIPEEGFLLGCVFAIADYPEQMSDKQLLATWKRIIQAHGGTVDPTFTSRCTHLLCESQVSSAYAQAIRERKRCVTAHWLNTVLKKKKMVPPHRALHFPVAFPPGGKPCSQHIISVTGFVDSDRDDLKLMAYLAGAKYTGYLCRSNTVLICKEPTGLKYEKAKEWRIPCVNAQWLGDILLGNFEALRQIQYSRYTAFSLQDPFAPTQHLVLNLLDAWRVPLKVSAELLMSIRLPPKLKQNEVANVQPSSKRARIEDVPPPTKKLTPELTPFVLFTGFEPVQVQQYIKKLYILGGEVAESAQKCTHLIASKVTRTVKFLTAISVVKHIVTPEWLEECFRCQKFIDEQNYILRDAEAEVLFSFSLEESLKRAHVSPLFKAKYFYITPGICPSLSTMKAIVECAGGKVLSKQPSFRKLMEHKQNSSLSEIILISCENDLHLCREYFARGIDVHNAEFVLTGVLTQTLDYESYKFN
UniProt A6NDB9: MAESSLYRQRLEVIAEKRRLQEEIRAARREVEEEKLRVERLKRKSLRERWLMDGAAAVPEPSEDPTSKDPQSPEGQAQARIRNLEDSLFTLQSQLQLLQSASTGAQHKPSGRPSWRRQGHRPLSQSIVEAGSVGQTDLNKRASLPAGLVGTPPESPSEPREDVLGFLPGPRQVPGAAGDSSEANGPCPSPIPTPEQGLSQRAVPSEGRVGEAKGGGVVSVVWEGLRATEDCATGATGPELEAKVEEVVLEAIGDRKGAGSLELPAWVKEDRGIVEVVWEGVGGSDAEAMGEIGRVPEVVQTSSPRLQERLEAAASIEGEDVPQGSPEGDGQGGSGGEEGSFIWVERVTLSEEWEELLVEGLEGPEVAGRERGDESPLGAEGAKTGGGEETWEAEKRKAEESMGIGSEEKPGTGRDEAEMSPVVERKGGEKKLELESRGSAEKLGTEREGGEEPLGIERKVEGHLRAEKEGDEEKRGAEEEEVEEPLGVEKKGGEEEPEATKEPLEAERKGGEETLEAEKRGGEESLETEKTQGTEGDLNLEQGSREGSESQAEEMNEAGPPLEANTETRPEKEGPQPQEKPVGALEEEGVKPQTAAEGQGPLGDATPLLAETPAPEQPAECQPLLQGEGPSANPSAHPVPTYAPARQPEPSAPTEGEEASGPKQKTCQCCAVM
UniProt Q9BZ23: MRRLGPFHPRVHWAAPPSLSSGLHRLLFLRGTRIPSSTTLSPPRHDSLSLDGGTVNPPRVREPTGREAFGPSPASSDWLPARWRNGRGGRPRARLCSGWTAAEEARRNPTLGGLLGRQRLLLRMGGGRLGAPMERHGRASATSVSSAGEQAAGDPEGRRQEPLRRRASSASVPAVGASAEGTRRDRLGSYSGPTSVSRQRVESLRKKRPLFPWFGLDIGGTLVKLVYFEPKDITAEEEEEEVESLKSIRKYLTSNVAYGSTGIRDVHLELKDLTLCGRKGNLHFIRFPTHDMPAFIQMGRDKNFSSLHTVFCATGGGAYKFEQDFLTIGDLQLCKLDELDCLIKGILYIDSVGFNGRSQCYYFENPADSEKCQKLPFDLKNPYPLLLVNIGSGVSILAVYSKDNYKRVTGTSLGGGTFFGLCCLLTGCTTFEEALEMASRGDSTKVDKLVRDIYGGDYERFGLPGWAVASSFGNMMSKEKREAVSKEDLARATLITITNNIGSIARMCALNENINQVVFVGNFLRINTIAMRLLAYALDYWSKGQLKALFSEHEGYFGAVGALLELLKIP
UniProt Q96HC4: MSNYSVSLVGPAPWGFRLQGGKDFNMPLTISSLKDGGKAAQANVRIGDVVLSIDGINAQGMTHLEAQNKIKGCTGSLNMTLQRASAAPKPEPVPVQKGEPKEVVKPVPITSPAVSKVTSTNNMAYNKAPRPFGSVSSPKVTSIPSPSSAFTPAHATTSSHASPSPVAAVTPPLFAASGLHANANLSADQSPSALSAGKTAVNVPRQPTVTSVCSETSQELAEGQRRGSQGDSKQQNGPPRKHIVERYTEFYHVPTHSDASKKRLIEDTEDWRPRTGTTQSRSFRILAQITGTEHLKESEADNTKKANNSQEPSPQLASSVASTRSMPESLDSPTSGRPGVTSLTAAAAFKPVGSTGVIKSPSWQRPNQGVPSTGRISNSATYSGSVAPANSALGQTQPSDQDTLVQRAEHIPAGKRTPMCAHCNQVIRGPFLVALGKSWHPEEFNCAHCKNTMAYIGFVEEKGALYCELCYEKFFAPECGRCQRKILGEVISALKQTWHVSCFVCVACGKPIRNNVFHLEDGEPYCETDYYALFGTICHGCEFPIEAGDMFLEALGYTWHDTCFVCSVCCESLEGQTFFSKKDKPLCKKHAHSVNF
UniProt Q9BUL8: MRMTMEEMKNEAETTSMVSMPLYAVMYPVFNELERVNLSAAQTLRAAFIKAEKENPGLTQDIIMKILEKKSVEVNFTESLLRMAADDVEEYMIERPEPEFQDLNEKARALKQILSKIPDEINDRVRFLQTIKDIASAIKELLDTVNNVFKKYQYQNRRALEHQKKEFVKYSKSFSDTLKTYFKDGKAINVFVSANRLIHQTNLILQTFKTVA
UniProt P56645: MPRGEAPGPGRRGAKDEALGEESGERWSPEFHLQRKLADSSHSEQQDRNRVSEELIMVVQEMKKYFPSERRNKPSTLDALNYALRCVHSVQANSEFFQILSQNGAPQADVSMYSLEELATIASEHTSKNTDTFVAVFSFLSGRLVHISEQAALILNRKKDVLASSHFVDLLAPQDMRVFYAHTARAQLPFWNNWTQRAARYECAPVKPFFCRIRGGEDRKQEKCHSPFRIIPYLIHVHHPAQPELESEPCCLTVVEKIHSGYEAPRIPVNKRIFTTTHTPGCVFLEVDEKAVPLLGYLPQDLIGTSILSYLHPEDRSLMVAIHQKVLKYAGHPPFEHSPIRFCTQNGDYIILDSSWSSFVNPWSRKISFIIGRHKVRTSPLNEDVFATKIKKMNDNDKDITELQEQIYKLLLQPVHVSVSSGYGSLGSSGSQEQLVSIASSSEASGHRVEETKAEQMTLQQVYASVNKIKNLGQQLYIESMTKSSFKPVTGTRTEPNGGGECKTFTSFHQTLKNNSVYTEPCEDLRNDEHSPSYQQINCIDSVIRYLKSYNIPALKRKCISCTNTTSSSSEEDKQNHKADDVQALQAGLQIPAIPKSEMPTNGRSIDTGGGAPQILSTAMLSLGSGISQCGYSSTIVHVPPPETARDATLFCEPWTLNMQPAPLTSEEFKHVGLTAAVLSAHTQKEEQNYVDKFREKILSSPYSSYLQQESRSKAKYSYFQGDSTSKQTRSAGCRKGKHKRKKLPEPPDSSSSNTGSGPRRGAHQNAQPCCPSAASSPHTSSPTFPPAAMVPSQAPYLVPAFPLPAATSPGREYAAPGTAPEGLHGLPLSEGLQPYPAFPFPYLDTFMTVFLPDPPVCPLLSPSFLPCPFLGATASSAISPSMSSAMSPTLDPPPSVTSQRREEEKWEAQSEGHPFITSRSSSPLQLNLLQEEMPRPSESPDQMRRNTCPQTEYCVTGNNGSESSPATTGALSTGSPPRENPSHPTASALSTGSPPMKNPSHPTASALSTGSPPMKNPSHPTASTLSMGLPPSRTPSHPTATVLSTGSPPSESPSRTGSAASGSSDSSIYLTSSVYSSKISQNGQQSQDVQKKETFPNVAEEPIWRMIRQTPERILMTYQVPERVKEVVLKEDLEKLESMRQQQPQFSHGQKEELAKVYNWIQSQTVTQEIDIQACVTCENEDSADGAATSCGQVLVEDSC
UniProt Q9BPZ3: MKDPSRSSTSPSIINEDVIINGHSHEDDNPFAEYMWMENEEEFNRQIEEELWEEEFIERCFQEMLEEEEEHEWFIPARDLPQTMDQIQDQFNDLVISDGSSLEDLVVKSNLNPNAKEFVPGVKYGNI
UniProt O14737: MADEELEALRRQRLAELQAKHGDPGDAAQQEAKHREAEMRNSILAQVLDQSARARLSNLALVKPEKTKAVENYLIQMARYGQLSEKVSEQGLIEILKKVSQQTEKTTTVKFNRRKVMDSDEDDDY
UniProt P11177, whole entry, looked up: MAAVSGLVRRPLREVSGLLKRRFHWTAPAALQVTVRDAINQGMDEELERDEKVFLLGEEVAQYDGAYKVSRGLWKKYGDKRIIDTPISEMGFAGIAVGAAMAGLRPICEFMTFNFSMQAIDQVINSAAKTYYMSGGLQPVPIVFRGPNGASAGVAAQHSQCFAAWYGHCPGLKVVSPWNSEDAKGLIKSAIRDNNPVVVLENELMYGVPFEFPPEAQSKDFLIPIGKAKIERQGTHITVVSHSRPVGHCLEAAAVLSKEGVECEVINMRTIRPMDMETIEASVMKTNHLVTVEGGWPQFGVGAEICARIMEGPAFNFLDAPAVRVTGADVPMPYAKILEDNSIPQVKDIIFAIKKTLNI
UniProt O00151: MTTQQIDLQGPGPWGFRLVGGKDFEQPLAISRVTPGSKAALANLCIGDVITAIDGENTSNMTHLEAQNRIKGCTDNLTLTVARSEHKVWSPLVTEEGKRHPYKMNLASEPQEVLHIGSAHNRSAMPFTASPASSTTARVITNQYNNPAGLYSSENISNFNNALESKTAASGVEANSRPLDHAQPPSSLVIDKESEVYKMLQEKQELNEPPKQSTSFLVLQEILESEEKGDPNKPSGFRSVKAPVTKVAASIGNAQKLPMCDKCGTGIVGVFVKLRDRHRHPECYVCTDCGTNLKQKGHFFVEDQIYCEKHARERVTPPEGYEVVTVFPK
UniProt Q9BUH6, whole entry, looked up: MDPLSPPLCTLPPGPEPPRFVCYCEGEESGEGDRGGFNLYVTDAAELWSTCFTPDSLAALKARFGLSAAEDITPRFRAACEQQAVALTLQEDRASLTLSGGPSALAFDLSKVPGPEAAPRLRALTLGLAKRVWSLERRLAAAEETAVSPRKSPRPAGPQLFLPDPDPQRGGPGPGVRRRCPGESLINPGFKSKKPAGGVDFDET
UniProt P12004, whole entry, looked up: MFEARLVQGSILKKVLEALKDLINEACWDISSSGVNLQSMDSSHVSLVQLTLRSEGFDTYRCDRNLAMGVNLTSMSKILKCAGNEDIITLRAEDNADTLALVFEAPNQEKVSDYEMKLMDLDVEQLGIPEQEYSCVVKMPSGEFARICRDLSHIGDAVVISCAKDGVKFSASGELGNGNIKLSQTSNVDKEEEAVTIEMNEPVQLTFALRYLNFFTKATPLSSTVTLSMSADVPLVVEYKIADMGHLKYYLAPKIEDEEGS

Columns and labels:
Test in all cases: log2 fold change, soluble protein after heating vs DMSO (PISA); higher = thermal stabilisation; K562 cells, 10 uM, 30 min; active = over 0.2 and 3.5 SD of the protein, either way, in both replicates (recomputed)
[1] = compound: CC[C@@H]1C(=O)N(C)c2cnc(Nc3ccc(C(=O)NC4CCN(C)CC4)cc3OC)nc2N1C1CCCC1
How it was run: (§1)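 Quantification of soluble protein used TMTpro 16plex LC-MS/MS, with channel sums equalised. Samples were the supernatant after 21,000xg for 90 min of pooled aliquots from K562 cells (2×10^6 cells/mL) treated with 10 μM compound for 30 min, heated for 3 min over 48°C-58°C, and extracted in PBS with 0.5% NP-40 at 4°C. Values, from duplicates, describe thermal stability against control samples on a log2 fold-change scale.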

volasertib = compound: CC[C@@H]1C(=O)N(C)c2cnc(Nc3ccc(C(=O)N[C@H]4CC[C@H](N5CCN(CC6CC6)CC5)CC4)cc3OC)nc2N1C(C)C [volasertib]
How it was run: as §1

[2] = compound: CC[C@H](C)N1C=C(C2=C(C=C(C=C21)C3=CN=C(C=C3)N4CCNCC4)C(=O)NCC5=C(C=C(NC5=O)C)C)C
How it was run: as §1

epoxomicin = compound: CC[C@H](C)[C@@H](C(=O)N[C@@H]([C@@H](C)O)C(=O)N[C@@H](CC(C)C)C(=O)[C@]1(CO1)C)NC(=O)[C@H]([C@@H](C)CC)N(C)C(=O)C [epoxomicin]
How it was run: as §1

[3] = compound: CCn1c(C(=O)N(C2CC2)C2CC2)cc2c3c(ncn3C)c(Nc3cc(C)n(C)n3)nc21
How it was run: as §1

[4] = compound: CCn1cc(-c2ccnc3[nH]c(-c4cccc(CN(C)C)c4)cc23)c(-c2ccc(NC(=O)N(C)C)cc2)n1
How it was run: as §1

[5] = compound: CN(C)CC(=O)Nc1ccc2[nH]c(=O)c3ccccc3c2c1
How it was run: as §1

rosiglitazone = compound: CN(CCOC1=CC=C(C=C1)C[C@H]2C(=O)NC(=O)S2)C3=CC=CC=N3 (racemic) [rosiglitazone]
How it was run: as §1

[6] = compound: CN1C2=C(C3=C1C(=O)N(N=C3)CC4=CC(=CC=C4)N)SC(=C2)S(=O)C
How it was run: as §1

[7] = compound: CN1CCC(CNc2ccc3ncc(-c4cccc(OC(F)(F)F)c4)n3n2)CC1
How it was run: as §1

saracatinib = compound: CN1CCN(CCOc2cc(OC3CCOCC3)c3c(Nc4c(Cl)ccc5c4OCO5)ncnc3c2)CC1 [saracatinib]
How it was run: as §1

sotrastaurin = compound: CN1CCN(c2nc(C3=C(c4c[nH]c5ccccc45)C(=O)NC3=O)c3ccccc3n2)CC1 [sotrastaurin]
How it was run: as §1

alvocidib = compound: CN1CC[C@H](c2c(O)cc(O)c3c(=O)cc(-c4ccccc4Cl)oc23)[C@H](O)C1 [alvocidib]
How it was run: as §1

Tubastatin A = compound: CN1CCc2c(c3ccccc3n2Cc2ccc(C(=O)NO)cc2)C1 [Tubastatin A]
How it was run: as §1

[8] = compound: CNC(=O)C1=CC=CC=C1NC2=NC(=NC=C2Cl)NC3=C(C=C(C=C3)N4CCOCC4)OC
How it was run: as §1

defactinib = compound: CNC(=O)c1ccc(Nc2ncc(C(F)(F)F)c(NCc3nccnc3N(C)S(C)(=O)=O)n2)cc1 [defactinib]
How it was run: as §1

rucaparib = compound: CNCc1ccc(-c2[nH]c3cc(F)cc4c3c2CCNC4=O)cc1 [rucaparib]
How it was run: as §1

[9] = compound: CNc1nc(-c2ccc3c(N)n[nH]c3c2)cc(N2C[C@@H](C(=O)NC3CCCCC3)CC[C@H]2C)n1
How it was run: as §1

encorafenib = compound: COC(=O)N[C@@H](C)CNc1nccc(-c2cn(C(C)C)nc2-c2cc(Cl)cc(NS(C)(=O)=O)c2F)n1 [encorafenib]
How it was run: as §1

[10] = compound: COC(=O)[C@H](CCSC)NC(=O)C1=C(C=C(C=C1)NC[C@H](CS)N)C2=CC=CC=C2
How it was run: as §1

Measured: log2 fold change

PEBP1 (UniProt P30086)
inactive: [1] -0.005 | volasertib 0.071 | [2] -0.031 | epoxomicin 0.007 | [3] 0.04 | [4] 0.005 | [5] -0.041 | rosiglitazone -0.008 | [6] -0.037 | [7] 0.009 | saracatinib 0.052 | sotrastaurin 0.016 | alvocidib -0.014 | Tubastatin A -0.022 | [8] -0.019 | defactinib 0.015 | rucaparib -0.046 | [9] 0.008 | encorafenib -0.036 | [10] 0.055

PAXIP1 (UniProt Q6ZW49)
inactive: [1] 0.106 | volasertib -0.164 | [2] 0.062 | epoxomicin -0.13 | [3] 0.092 | [4] -0.07 | [5] -0.09 | rosiglitazone 0.148 | [6] 0.01 | [7] 0.007 | saracatinib -0.103 | sotrastaurin 0.057 | alvocidib 0.073 | Tubastatin A -0.041 | [8] 0.031 | defactinib -0.034 | rucaparib -0.186 | [9] 0.015 | encorafenib 0.129 | [10] 0.151

PALM3 (UniProt A6NDB9)
inactive: [1] 0.192 | volasertib 0.065 | [2] 0.025 | epoxomicin -0.008 | [3] 0.01 | [4] 0.145 | [5] -0.015 | rosiglitazone 0.001 | [6] -0.128 | [7] 0.114 | saracatinib -0.026 | sotrastaurin 0.056 | alvocidib 0.087 | Tubastatin A 0.06 | [8] -0.081 | defactinib -0.025 | rucaparib -0.041 | [9] 0.001 | encorafenib 0.006 | [10] 0.025

PDXDC1 (UniProt Q6P996)
inactive: [1] 0.119 | volasertib -0.263 | [2] -0.13 | epoxomicin -0.286 | [3] -0.043 | [4] -0.22 | [5] -0.161 | rosiglitazone -0.227 | [6] 0.34 | [7] 0.061 | saracatinib -0.134 | sotrastaurin -0.121 | alvocidib -0.188 | Tubastatin A -0.046 | [8] 0.043 | defactinib 0.194 | rucaparib 0.501 | [9] 0.072 | encorafenib 0.326 | [10] -0.049

PANK2 (UniProt Q9BZ23)
inactive: [1] -0.066 | volasertib -0.067 | [2] 0.011 | epoxomicin 0 | [3] -0.063 | [4] -0.047 | [5] 0.004 | rosiglitazone 0.028 | [6] -0.024 | [7] 0.01 | saracatinib 0.081 | sotrastaurin -0.035 | alvocidib -0.111 | Tubastatin A -0.016 | [8] -0.121 | defactinib -0.041 | rucaparib 0.034 | [9] -0.051 | encorafenib 0.001 | [10] 0.006

PDCD11 (UniProt Q14690)
inactive: [1] 0.029 | volasertib -0.393 | [2] 0.003 | epoxomicin -0.144 | [3] -0.13 | [4] -0.066 | [5] -0.045 | rosiglitazone 0.199 | [6] 0.244 | [7] -0.009 | saracatinib 0.036 | sotrastaurin -0.098 | alvocidib -0.007 | Tubastatin A 0.051 | [8] -0.139 | defactinib 0.069 | rucaparib -0.037 | [9] 0.028 | encorafenib 0.034 | [10] -0.143

PDLIM5 (UniProt Q96HC4)
inactive: [1] -0.075 | volasertib -0.151 | [2] 0.027 | epoxomicin 0.043 | [3] -0.014 | [4] -0.075 | [5] 0.013 | rosiglitazone 0.034 | [6] -0.038 | [7] -0.06 | saracatinib 0.004 | sotrastaurin -0.01 | alvocidib -0.042 | Tubastatin A 0.012 | [8] -0.032 | defactinib -0.033 | rucaparib -0.043 | [9] -0.009 | encorafenib 0.007 | [10] -0.005

PDCD10 (UniProt Q9BUL8)
inactive: [1] 0.015 | volasertib -0.135 | [2] 0.024 | epoxomicin 0.025 | [3] 0.023 | [4] -0.024 | [5] -0.005 | rosiglitazone 0.035 | [6] -0.075 | [7] -0.103 | saracatinib -0.032 | sotrastaurin 0.109 | alvocidib 0.009 | Tubastatin A 0.004 | [8] -0.033 | defactinib -0.038 | rucaparib -0.064 | [9] 0.015 | encorafenib 0 | [10] 0.001

PER3 isoform 2 (UniProt P56645)
inactive: [1] 0.018 | volasertib -0.012 | [2] -0.012 | epoxomicin -0.009 | [3] -0.022 | [4] -0.03 | [5] 0.067 | rosiglitazone 0.004 | [6] -0.038 | [7] 0.073 | saracatinib 0.117 | sotrastaurin -0.008 | alvocidib -0.058 | Tubastatin A 0.053 | [8] -0.047 | defactinib 0.006 | rucaparib 0.06 | [9] -0.074 | encorafenib -0.062 | [10] -0.019

PAIP2 (UniProt Q9BPZ3)
inactive: [1] 0.007 | volasertib -0.08 | [2] 0.1 | epoxomicin 0.01 | [3] 0.072 | [4] 0.013 | [5] 0.037 | rosiglitazone 0.031 | [6] 0.079 | [7] -0.021 | saracatinib -0.139 | sotrastaurin -0.002 | alvocidib -0.08 | Tubastatin A 0.081 | [8] 0.062 | defactinib 0.134 | rucaparib 0.079 | [9] -0.095 | encorafenib 0.008 | [10] 0.094

PDCD5 (UniProt O14737)
inactive: [1] 0.003 | volasertib 0.068 | [2] -0.036 | epoxomicin 0.056 | [3] 0.028 | [4] 0.035 | [5] -0.01 | rosiglitazone 0.029 | [6] -0.044 | [7] 0.015 | saracatinib 0.009 | sotrastaurin -0.085 | alvocidib 0.025 | Tubastatin A 0.003 | [8] -0.038 | defactinib 0.007 | rucaparib -0.054 | [9] -0.023 | encorafenib 0.067 | [10] 0.009

PDHB (UniProt P11177)
inactive: [1] 0.01 | volasertib 0.156 | [2] 0.059 | epoxomicin 0.049 | [3] -0.043 | [4] 0.005 | [5] 0.017 | rosiglitazone 0.022 | [6] 0.042 | [7] -0.036 | saracatinib -0.14 | sotrastaurin -0.099 | alvocidib -0.01 | Tubastatin A 0.125 | [8] -0.013 | defactinib 0.139 | rucaparib 0.047 | [9] 0.17 | encorafenib 0.113 | [10] -0.05

Copied from the entries so far (two entries):
PAIP2 (UniProt Q9BPZ3)
inactive: [1] 0.007 | volasertib -0.08 | [2] 0.1 | epoxomicin 0.01 | [3] 0.072 | [4] 0.013 | [5] 0.037 | rosiglitazone 0.031 | [6] 0.079 | [7] -0.021 | saracatinib -0.139 | sotrastaurin -0.002 | alvocidib -0.08 | Tubastatin A 0.081 | [8] 0.062 | defactinib 0.134 | rucaparib 0.079 | [9] -0.095 | encorafenib 0.008 | [10] 0.094

PDCD5 (UniProt O14737)
inactive: [1] 0.003 | volasertib 0.068 | [2] -0.036 | epoxomicin 0.056 | [3] 0.028 | [4] 0.035 | [5] -0.01 | rosiglitazone 0.029 | [6] -0.044 | [7] 0.015 | saracatinib 0.009 | sotrastaurin -0.085 | alvocidib 0.025 | Tubastatin A 0.003 | [8] -0.038 | defactinib 0.007 | rucaparib -0.054 | [9] -0.023 | encorafenib 0.067 | [10] 0.009

Further entries.

PDLIM1 (UniProt O00151)
inactive: [1] -0.069 | volasertib 0.031 | [2] -0.039 | epoxomicin 0.039 | [3] 0.017 | [4] -0.009 | [5] 0.002 | rosiglitazone -0.001 | [6] -0.029 | [7] -0.003 | saracatinib 0.042 | sotrastaurin 0.015 | alvocidib -0.025 | Tubastatin A -0.01 | [8] -0.016 | defactinib -0.001 | rucaparib -0.009 | [9] -0.024 | encorafenib -0.035 | [10] 0.035

PAXX (UniProt Q9BUH6)
inactive: [1] 0.023 | volasertib 0.05 | [2] -0.057 | epoxomicin -0.024 | [3] 0.003 | [4] -0.024 | [5] -0.024 | rosiglitazone 0.026 | [6] -0.068 | [7] -0.045 | saracatinib 0.028 | sotrastaurin 0.059 | alvocidib 0.037 | Tubastatin A -0.027 | [8] -0.131 | defactinib -0.026 | rucaparib 0.004 | [9] -0.026 | encorafenib -0.031 | [10] 0.008

PCNA (UniProt P12004)
inactive: [1] -0.016 | volasertib 0.003 | [2] -0.016 | epoxomicin 0.025 | [3] -0.012 | [4] 0.009 | [5] -0.011 | rosiglitazone 0.001 | [6] -0.028 | [7] -0.037 | saracatinib 0.001 | sotrastaurin 0.014 | alvocidib -0.009 | Tubastatin A -0.036 | [8] -0.025 | defactinib 0.009 | rucaparib -0.049 | [9] -0.049 | encorafenib -0.01 | [10] 0.017

PAPOLA (UniProt P51003)
inactive: [1] -0.001 | volasertib -0.049 | [2] 0.044 | epoxomicin 0.044 | [3] 0.004 | [4] -0.06 | [5] -0.018 | rosiglitazone 0.038 | [6] -0.095 | [7] -0.009 | saracatinib 0.035 | sotrastaurin 0.007 | alvocidib -0.049 | Tubastatin A -0.064 | [8] -0.024 | defactinib -0.06 | rucaparib 0.024 | [9] -0.029 | encorafenib -0.002 | [10] -0.023
